Data: article PMC8560896 (Frontiers in Chemistry, 2021)

Columns and labels:
[1] = Cupric ion reducing antioxidant capacity (CUPRAC); details: Supplementary Table 1; molar absorptivity in CUPRAC test
Method: The CUPRAC test was performed as reported by [Ozyürek et al. (2008)] on the new compounds in the unacetylated form.
CuCl2 solution 10 mM, was prepared by dissolving […] CuCl2 in water, and diluting to 250 ml. Neocuproine (Nc) solution 7.5 mM, was prepared by dissolving 15 mg of neocuproine in 10 ml of absolute EtOH. Ammonium acetate 1.0 M was prepared by dissolving 19.27 g of NH4Ac in 250 ml of water. The cyclodextrin (2% M-β-CD) stock solution was prepared in water-acetone (9:1 v/v). The standard solution of Trolox 1 mM was prepared in 2% M-β-CD. All working solutions of antioxidant 1 mM were freshly prepared in 2% M-β-CD.
1 ml of Cu(II) + 1 ml of Nc + 1 ml of NH4Ac buffer + x mL of antioxidant solution + (1.1 − x) 2% M-β-CD in 1:9 water–acetone mixture (v/v); total volume = 4.1 ml, measure A 450 against a reagent blank after 40 min of reagent addition at room temperature.
The Trolox equivalent antioxidant capacity (TEAC) is defined as the millimolar concentration of a Trolox solution having the antioxidant capacity equivalent to a 1.0 mM solution of the substance under investigation. The […] values were simply calculated by dividing the molar absorptivity ε of the species under investigation by that of Trolox under corresponding conditions. The concentration linearity ranges for all the antioxidants tested are reported in the Supplementary Material (See Supplementary Table S1).

SH-SY5Y cells = assay: MTT cell viability assay; format: cell-based, human; details: ratio between the IC50 value and the concentration with more antioxidant activity
Excerpt: The MTT test is based on the observation that live cells can reduce the water-soluble yellow tetrazolium salt [3-(4,5-dimethylthiazol-2-yl)-2,5-diphenyltetrazolium bromide] into water-insoluble blue/magenta formazan crystals, by dehydrogenase of the active mitochondria. Dissolved formazan crystals can be quantified using a spectrophotometer and the values obtained are in direct correlation to the number of metabolically active cells. For this reason, this colorimetric assay is used to evaluate cell viability.
The MTT assay was performed as reported in literature ([Corasaniti et al., 2007]). […].
The optical density was measured at wavelengths of 540 and 690 nm using a spectrophotometer (X MARK Spectrophotometer Microplate Bio-Rad).

SMILES	ε [1]	Therapeutic index (SH-SY5Y cells)
COc1cc(CCOC(=O)C2CCN(Cc3ccccc3)CC2)ccc1O [HT3]	0,0239 L mol−1 cm−1	25
OCCc1ccc(O)c(O)c1 [HT, hydroxytyrosol, reference compound]	0,0375 L mol−1 cm−1	–
Cc1c(C)c2c(c(C)c1O)CCC(C)(C(=O)O)O2 (stereo not drawn) [Trolox, reference compound]	0,0133 L mol−1 cm−1	–
O=C(OCCc1ccc(O)cc1)C1CCN(Cc2ccccc2)CC1 [HT4]	0,0132 L mol−1 cm−1	50
COc1cc(CCOC(=O)C2CCN(Cc3ccccc3)CC2)ccc1OC(C)=O [HT3a]	–	10
O=C(OCCc1ccc(O)c(O)c1)C1CCN(Cc2ccccc2)CC1 [HT1]	0,0447 L mol−1 cm−1	–
CC(=O)Oc1ccc(CCOC(=O)C2CCN(Cc3ccccc3)CC2)cc1 [HT4a]	–	40
O=C(OCCc1cc(O)c(O)cc1[N+](=O)[O-])C1CCN(Cc2ccccc2)CC1 [HT2]	0,0369 L mol−1 cm−1	50
CC(=O)Oc1ccc(CCOC(=O)C2CCN(Cc3ccccc3)CC2)cc1OC(C)=O [HT1a]	–	50
